For the assay, the target named is Argonaute 2 (mouse (endogenous in NSC-34)) (UniProt Q8CJG0). The assay is described as follows: co-IP.

Protein sequences, listed by entry. Tags and fused reporters are not part of them.
UniProt Q8CJG0: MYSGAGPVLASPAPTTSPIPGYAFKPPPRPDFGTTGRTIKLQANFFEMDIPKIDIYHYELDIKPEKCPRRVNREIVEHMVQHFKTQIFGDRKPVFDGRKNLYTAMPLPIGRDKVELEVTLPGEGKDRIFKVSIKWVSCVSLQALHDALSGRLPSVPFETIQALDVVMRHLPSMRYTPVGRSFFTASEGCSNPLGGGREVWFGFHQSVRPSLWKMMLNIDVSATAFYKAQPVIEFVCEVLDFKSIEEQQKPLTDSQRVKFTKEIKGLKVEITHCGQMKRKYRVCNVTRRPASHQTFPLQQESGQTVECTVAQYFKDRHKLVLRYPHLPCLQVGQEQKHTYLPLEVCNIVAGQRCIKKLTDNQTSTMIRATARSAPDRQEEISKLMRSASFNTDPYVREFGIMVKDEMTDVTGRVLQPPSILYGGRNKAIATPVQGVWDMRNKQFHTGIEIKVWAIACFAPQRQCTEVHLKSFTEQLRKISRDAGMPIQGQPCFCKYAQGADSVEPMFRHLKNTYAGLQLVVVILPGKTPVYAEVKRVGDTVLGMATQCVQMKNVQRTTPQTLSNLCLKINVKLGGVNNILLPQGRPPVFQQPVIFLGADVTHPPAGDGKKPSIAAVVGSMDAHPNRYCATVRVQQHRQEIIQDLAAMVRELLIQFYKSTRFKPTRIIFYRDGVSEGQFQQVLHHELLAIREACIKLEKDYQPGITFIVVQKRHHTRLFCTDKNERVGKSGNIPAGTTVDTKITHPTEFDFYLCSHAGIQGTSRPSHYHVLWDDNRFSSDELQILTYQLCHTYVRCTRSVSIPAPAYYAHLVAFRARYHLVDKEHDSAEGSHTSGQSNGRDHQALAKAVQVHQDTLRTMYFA
UniProt O88569: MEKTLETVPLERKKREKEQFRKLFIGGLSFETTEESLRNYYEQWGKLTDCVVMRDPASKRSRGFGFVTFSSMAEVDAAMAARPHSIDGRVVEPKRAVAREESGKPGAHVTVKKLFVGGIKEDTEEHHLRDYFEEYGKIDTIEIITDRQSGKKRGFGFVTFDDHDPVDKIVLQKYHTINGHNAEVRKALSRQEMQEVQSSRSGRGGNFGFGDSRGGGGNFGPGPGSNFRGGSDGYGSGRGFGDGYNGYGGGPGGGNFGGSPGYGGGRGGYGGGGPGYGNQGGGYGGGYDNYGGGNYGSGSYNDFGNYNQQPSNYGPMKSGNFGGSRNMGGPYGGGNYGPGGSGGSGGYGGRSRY

Results are given in words; binding and its absence hold for the method and conditions named. Binding seen in cells or lysates may run through a third protein. Some binding calls cover weakened binding; strength is not graded here.

The source of these data is article doi:10.1101/2020.12.15.422806.

Consider HNRNPA2B1 (from UniProt O88569 1-353), for which the binding result is given as “binds”.
